# Data taken from the supplement of paper PMC12889115.
# The other results are listed elsewhere or left out. These are raw signals, not scaled to a control.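 In the initial screen, polymyxin B was used at a concentration that permeabilizes Salmonella's outer membrane but not its inner membrane. Maximum growth was set by DMSO wells with or without polymyxin B. Since plates varied, data were ranked per plate, and compounds giving the lowest OD600 advanced as hits.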
# Tested on: Salmonella enterica serovar Typhimurium SL1344
# Test: bacterial growth OD600 after 18 h with compound and polymyxin B; higher = more bacterial growth (less inhibition)
# Conditions: 50 µM, Mueller-Hinton broth
Structure (SMILES),bacterial growth OD600 (polymyxin B 1 µg/mL),bacterial growth OD600 (polymyxin B 0.75 µg/mL)
O=C(NCCCn1cccn1)c1ccc2nc(C3CCCCC3)oc2c1,0.953,–
Cc1ccccc1-c1noc(-c2ccc(N(C)C(C)c3ccon3)nc2)n1 (stereo unspecified),–,0.429
COc1ccc(C(=O)NC2CC2)c(OC2CCN(C(C)CCn3cccn3)CC2)c1 (stereo unspecified),–,0.793
Cc1ccccc1CCC1CCCN(C(=O)c2cscn2)C1 (stereo unspecified),–,0.009
Cc1occc1C(=O)NCc1nc(-c2ccc(NC(=O)Cc3ccccc3)cc2)oc1C,–,0.85
COc1ccc(N2C(=O)CN(C(=O)COc3ccccc3OC)CC23CCCC3)cc1,–,0.786
COCc1ccc(C(=O)N2CCC(n3nccc3NC(=O)c3cccc(F)c3)CC2)o1,0.994,–
Cc1cccc(C)c1Oc1ncccc1CNC(=O)CCc1c(C)noc1C,1.32,–
CN1CCN([C@@H]2CCN(Cc3ccc(-c4cccc(Cl)c4)o3)C[C@H]2O)CC1,0.86,–
CCOC(=O)N1CCN(Cc2ccc3c(c2)CN(C(=O)[C@@H]2C[C@H]2c2ccccc2)CCO3)CC1,–,0.82
CCN1CCN(Cc2nc(-c3ccc(Cl)cc3)oc2C)[C@@H](C)C1=O,0.249,–
COc1ccc(-c2cnnc(N3CCC(N(C)C)C3)n2)cc1F (stereo unspecified),–,0.88
CCOC(=O)N1CCN(c2nncc(-c3ccc4ccccc4c3)n2)CC1,–,0.006
COc1ccc(OCc2cc(C(=O)N(C)Cc3cc(C)no3)no2)c(Cl)c1,1.07,–
Cc1nnc(CN(C)C(=O)CC(c2ccccc2)c2ccc(Cl)cc2)o1 (stereo unspecified),0.911,–
Cc1c[nH]c(CNC(=O)C2CCCN(c3nc(-c4ccccc4)nc4c3CCC4)C2)n1 (stereo unspecified),0.004,–
O=C(NCc1cccc(F)c1)c1ccc(OC2CCN(C(=O)C3CC3)CC2)cc1,1.17,–
COCc1ccc(C(=O)Nc2ccc(-c3nc(CNC(=O)c4csc(SC)n4)c(C)o3)cc2)o1,–,0.872
Cc1nonc1CC(=O)N1CCCC(CNC(=O)C2(c3ccc(Cl)cc3)CC2)C1 (stereo unspecified),–,0.724
COc1ccc(CCc2nnc(CCC(=O)NC3CCCCCCC3)o2)cc1,0.948,–
CCOC(=O)C1(CCCc2ccccc2)CCN(Cc2ccc(CO)o2)CC1,0.786,–

# 2 entries drawn at random from the list so far:
Structure (SMILES),bacterial growth OD600 (polymyxin B 1 µg/mL),bacterial growth OD600 (polymyxin B 0.75 µg/mL)
COc1ccc(OCc2cc(C(=O)N(C)Cc3cc(C)no3)no2)c(Cl)c1,1.07,–
CCOC(=O)C1(CCCc2ccccc2)CCN(Cc2ccc(CO)o2)CC1,0.786,–
